Measurements from paper PMC12559223 (Nature Communications, 2025).

Assay: peptide synthesis
Conditions: whole synthesis

AADLGKSARDVFTKG
final HPLC purity: >98%

YAALGKSARDVFTKG
final HPLC purity: >98%

YADAGKSARDVFTKG
final HPLC purity: >98%

YADLAKSARDVFTKG
final HPLC purity: >98%

YADLGASARDVFTKG
final HPLC purity: 95%

YADLGKAARDVFTKG
final HPLC purity: >98%

YADLGKSAADVFTKG
final HPLC purity: 95%

YADLGKSARAVFTKG
final HPLC purity: >98%

YADLGKSARDAFTKG
final HPLC purity: 98%

YADLGKSARDVATKG
final HPLC purity: 96%

YADLGKSARDVFAKG
final HPLC purity: 98%

Where a sequence shows no end group, the ends are not given.
